# Laboratory results taken from the supplement of paper PMC10849652.
# Amino acid sequences for entries named in this document (tags omitted). A change or cut given only in a name is not applied to a line headed by its entry.
# UniProt Q8IZH2: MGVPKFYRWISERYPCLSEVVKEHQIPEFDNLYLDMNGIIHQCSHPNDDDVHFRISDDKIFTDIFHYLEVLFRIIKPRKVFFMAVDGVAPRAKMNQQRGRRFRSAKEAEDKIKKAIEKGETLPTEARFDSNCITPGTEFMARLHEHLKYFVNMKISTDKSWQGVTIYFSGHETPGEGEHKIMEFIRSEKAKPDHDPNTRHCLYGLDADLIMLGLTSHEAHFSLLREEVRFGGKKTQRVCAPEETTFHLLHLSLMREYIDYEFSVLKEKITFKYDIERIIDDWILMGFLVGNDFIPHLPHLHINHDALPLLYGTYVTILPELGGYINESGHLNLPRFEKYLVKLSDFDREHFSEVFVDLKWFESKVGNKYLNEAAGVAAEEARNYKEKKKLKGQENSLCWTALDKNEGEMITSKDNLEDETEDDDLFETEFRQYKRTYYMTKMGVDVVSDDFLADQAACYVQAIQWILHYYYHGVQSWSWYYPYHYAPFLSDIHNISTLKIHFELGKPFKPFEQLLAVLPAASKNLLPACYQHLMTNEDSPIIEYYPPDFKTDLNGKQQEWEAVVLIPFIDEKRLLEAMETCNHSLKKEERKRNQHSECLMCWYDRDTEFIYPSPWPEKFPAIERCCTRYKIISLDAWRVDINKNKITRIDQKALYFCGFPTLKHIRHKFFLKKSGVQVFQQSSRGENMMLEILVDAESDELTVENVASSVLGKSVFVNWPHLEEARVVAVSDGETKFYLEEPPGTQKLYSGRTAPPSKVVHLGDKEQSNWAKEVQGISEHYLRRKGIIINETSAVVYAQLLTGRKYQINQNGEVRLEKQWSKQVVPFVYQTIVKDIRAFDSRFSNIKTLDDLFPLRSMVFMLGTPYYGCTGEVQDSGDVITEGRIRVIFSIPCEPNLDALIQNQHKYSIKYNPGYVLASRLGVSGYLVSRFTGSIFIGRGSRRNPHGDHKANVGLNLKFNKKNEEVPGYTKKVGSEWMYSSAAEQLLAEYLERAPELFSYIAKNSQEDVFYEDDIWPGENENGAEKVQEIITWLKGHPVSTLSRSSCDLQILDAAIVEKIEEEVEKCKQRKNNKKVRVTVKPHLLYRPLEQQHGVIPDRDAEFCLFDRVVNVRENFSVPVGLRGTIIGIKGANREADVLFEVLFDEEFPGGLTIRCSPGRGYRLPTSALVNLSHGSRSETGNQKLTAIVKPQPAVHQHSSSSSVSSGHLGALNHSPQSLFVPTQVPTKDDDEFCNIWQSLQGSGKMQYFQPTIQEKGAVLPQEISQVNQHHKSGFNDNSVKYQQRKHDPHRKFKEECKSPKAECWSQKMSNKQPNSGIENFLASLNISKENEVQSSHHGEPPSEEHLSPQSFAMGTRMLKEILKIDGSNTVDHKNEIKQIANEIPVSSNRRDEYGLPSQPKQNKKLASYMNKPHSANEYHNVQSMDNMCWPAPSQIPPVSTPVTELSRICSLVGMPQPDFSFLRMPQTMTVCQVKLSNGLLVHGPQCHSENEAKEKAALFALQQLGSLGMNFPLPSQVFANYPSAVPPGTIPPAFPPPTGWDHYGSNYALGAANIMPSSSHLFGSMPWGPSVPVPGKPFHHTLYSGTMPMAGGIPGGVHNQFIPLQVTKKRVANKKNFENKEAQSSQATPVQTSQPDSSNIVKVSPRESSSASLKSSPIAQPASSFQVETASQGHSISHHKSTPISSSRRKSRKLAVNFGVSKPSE
# UniProt P61981: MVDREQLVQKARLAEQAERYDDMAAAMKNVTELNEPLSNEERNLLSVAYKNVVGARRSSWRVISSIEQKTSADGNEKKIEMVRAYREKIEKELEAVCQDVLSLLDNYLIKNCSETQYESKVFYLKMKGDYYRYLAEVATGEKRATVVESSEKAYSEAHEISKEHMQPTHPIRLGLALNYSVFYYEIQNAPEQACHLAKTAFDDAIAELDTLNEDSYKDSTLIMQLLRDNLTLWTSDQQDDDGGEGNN
# UniProt Q96TA2: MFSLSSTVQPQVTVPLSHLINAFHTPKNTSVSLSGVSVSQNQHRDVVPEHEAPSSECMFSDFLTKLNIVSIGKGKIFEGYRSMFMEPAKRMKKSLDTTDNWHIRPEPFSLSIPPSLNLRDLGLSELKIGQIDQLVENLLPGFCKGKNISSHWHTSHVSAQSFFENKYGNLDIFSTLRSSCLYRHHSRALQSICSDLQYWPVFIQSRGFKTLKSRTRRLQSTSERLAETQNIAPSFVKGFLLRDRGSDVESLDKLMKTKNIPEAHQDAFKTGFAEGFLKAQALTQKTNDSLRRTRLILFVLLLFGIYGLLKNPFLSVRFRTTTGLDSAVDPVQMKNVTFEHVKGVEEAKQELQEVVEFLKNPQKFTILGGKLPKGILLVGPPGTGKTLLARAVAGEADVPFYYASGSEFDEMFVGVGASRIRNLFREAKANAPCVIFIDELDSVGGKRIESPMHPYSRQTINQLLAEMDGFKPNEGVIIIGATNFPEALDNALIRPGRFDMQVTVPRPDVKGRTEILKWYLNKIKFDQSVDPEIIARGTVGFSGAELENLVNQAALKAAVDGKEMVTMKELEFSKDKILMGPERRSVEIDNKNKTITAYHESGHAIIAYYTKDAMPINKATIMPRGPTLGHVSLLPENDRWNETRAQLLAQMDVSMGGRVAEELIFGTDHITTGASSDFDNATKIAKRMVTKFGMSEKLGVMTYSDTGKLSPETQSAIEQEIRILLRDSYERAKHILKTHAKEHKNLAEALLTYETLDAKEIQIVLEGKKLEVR
# UniProt Q9C0E2: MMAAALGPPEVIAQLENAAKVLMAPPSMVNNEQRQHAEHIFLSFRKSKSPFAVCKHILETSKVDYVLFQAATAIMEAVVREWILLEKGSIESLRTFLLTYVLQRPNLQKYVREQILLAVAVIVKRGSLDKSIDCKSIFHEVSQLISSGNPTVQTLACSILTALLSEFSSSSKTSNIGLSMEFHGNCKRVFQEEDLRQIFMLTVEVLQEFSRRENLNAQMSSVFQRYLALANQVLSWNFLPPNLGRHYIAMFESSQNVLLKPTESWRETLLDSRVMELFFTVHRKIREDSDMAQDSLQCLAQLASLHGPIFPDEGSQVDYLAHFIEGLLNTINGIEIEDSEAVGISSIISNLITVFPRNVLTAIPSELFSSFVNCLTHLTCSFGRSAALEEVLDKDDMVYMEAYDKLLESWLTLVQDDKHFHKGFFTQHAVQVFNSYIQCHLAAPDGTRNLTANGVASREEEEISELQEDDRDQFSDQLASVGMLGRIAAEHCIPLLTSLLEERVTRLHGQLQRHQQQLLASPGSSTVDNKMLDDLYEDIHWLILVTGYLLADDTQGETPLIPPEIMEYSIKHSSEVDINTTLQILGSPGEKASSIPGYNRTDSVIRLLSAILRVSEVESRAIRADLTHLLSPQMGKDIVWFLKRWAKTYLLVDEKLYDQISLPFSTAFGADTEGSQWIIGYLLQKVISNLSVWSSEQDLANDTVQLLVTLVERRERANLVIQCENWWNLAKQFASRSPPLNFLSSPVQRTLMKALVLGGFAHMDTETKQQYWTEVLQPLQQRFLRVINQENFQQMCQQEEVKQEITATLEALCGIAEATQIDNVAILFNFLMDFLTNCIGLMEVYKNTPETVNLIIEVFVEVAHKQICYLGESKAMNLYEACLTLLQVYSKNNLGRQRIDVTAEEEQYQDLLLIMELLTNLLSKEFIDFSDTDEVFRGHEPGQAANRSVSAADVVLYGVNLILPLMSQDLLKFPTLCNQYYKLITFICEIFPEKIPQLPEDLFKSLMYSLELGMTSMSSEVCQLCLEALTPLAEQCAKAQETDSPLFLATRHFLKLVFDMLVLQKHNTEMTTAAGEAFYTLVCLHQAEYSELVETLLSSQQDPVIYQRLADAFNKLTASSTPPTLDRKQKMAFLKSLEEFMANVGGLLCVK
# UniProt Q9UPT8: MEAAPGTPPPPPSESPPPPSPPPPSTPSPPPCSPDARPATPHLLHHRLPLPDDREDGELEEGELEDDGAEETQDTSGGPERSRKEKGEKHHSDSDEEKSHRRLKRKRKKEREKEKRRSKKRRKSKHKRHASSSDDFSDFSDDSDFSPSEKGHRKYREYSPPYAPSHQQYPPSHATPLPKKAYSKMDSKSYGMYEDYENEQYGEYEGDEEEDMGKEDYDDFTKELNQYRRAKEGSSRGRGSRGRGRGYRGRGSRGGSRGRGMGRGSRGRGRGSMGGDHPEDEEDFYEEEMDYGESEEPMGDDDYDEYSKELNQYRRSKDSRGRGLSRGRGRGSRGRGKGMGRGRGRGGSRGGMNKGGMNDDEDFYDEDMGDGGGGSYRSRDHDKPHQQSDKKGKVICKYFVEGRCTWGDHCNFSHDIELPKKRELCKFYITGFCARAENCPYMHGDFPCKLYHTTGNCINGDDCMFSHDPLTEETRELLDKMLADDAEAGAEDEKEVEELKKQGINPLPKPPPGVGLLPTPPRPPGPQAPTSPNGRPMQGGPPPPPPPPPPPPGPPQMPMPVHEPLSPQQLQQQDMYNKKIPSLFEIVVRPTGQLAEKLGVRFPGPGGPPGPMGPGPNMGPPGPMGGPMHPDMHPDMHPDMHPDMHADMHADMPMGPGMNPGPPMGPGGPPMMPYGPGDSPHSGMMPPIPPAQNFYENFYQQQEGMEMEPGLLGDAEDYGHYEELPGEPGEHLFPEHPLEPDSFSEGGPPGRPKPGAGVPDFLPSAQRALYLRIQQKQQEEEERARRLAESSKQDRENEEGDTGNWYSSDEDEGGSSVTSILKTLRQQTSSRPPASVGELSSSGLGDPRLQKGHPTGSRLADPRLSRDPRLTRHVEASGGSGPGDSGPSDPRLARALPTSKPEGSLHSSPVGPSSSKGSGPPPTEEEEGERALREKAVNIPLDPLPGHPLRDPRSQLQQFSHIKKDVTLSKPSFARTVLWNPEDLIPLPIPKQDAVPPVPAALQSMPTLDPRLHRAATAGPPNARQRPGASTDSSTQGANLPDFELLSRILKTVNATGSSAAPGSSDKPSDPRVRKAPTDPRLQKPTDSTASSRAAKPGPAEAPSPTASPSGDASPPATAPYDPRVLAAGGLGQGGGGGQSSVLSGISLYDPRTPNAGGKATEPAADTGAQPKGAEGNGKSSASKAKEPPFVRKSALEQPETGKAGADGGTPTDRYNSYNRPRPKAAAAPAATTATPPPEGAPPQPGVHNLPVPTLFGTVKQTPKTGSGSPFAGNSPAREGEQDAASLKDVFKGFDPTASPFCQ
# UniProt Q96JP5: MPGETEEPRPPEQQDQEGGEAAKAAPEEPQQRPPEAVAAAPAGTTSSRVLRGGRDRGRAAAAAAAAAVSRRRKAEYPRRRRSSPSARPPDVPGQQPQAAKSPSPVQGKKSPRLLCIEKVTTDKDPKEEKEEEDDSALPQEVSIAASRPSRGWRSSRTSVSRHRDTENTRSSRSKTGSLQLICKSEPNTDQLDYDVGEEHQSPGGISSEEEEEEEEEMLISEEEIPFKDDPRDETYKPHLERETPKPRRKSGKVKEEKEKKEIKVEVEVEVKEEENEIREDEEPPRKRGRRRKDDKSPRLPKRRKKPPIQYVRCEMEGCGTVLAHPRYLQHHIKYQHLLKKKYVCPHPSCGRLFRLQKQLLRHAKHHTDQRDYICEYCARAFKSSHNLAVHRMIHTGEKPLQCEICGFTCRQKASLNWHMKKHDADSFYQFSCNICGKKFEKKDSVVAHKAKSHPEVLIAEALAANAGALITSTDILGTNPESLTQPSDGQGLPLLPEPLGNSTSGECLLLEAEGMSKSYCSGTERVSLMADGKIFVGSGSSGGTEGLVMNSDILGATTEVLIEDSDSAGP
# UniProt Q9C0B5: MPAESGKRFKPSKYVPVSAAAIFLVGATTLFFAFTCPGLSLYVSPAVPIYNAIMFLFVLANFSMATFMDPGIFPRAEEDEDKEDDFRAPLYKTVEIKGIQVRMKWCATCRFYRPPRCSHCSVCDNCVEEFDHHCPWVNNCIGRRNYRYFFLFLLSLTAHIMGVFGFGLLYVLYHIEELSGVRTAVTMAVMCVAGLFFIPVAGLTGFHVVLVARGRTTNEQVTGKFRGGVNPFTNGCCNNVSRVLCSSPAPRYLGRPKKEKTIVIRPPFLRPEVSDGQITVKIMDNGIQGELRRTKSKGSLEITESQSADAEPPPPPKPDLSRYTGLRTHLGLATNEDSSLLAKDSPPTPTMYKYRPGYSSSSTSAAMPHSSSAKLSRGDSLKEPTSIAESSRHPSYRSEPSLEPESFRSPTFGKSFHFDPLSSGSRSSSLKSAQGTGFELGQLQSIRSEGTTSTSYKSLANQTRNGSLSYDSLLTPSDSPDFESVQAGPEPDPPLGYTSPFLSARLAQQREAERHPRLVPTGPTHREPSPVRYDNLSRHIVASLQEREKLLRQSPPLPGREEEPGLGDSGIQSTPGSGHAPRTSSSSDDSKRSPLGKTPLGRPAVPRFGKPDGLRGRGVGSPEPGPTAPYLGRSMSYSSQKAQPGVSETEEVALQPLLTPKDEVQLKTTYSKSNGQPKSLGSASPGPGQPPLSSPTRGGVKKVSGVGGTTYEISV
# This is one part of the list.
# Tests used:
# Experiment in all cases: log2 fold change, soluble protein after heating vs DMSO (PISA); higher = thermal stabilisation; K562 lysate, 10 uM; active = over 0.2 and 3.5 SD of the protein, either way, in both replicates (recomputed)
# [1] = compound: C=CC(=O)N1CCC[C@@H](n2nc(-c3ccc(Oc4ccccc4)cc3)c3c(N)ncnc32)C1 [ibrutinib]
# Method in brief: (§1)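 Following dounce homogenisation of K562 pellets in PBS pH 7.4 with 1 mM MgCl2, crude extract at 1 mg/mL protein was incubated for 30 min with 10 μM compound. Aliquots were then heated for 3 min over 48°C-58°C and pooled, NP-40 was added to 0.5% at 4°C, and soluble protein was recovered as the supernatant at 21,000xg for 90 min. Channel-sum-equalised TMTpro 16plex LC-MS/MS quantified this protein. Each value, from duplicates, is a log-two fold change in thermal stability relative to solvent controls.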
# [2] = compound: CC(=O)c1cnc2ccc(-c3cc(Cl)c(O)c(Cl)c3)nc2c1N[C@H]1CC[C@H](CN(C)C)CC1
# Method in brief: as §1
# [3] = compound: CC(C)(C)Cn1c(N)nc2ccc(-c3[nH]c(C(C)(C)C)nc3-c3ccc(F)cc3)nc21 [ralimetinib]
# Method in brief: as §1
# [4] = compound: CC(C)(O)CC(=O)NCCn1ccc2ncnc(Nc3ccc(Oc4cccc(C(F)(F)F)c4)c(Cl)c3)c21
# Method in brief: as §1
# [5] = compound: CC(C)C1=C2N=C(C=C(N2N=C1)NCC3=CC=CC=C3)NCCCCCCN
# Method in brief: as §1
# [6] = compound: CC1=C(C(CC(=O)N1)C2=CC=C(C=C2)C(F)(F)F)C(=O)NC3=C(C=C4C(=C3)C=NN4)F
# Method in brief: as §1
# [7] = compound: CC1=C(C2=C(C=C1)C(=O)C3=CC=CC=C3N2CCCN)C
# Method in brief: as §1
# [8] = compound: CC1=C(C=C(C=C1)NC(=O)C2=CC(=CC=C2)C(C)(C)C#N)NC3=CC4=C(C=C3)N=CN(C4=O)C
# Method in brief: as §1
# [9] = compound: CC1=C(C=C(C=C1)NC(=O)C2=CC(=CC=C2)N(C)C)NC(=O)C3=CC=C(C=C3)O
# Method in brief: as §1
# [10] = compound: CC1=CC=C(C=C1)SC2=C3C=C(SC3=CN=C2)C(=O)N
# Method in brief: as §1
# [11] = compound: CCCS(=O)(=O)Nc1ccc(F)c(C(=O)c2c[nH]c3ncc(-c4ccc(Cl)cc4)cc23)c1F [vemurafenib]
# Method in brief: as §1
# [12] = compound: CCCS(=O)(=O)Nc1ccc(F)c(C(=O)c2c[nH]c3ncc(Cl)cc23)c1F
# Method in brief: as §1
# [13] = compound: CCN(CCCOc1ccc2c(Nc3cc(CC(=O)Nc4cccc(F)c4)[nH]n3)ncnc2c1)CCOP(=O)(O)O [barasertib]
# Method in brief: as §1
# [14] = compound: CC[C@@H]1C(=O)N(C)c2cnc(Nc3ccc(C(=O)NC4CCN(C)CC4)cc3OC)nc2N1C1CCCC1
# Method in brief: as §1
# [15] = compound: CC[C@@H]1C(=O)N(C)c2cnc(Nc3ccc(C(=O)N[C@H]4CC[C@H](N5CCN(CC6CC6)CC5)CC4)cc3OC)nc2N1C(C)C [volasertib]
# Method in brief: as §1
# [16] = compound: CCn1c(C(=O)N(C2CC2)C2CC2)cc2c3c(ncn3C)c(Nc3cc(C)n(C)n3)nc21
# Method in brief: as §1
# [17] = compound: CCn1cc(-c2ccnc3[nH]c(-c4cccc(CN(C)C)c4)cc23)c(-c2ccc(NC(=O)N(C)C)cc2)n1
# Method in brief: as §1
# [18] = compound: CN1CCC(CNc2ccc3ncc(-c4cccc(OC(F)(F)F)c4)n3n2)CC1
# Method in brief: as §1
# [19] = compound: CN1CCN(CCOc2cc(OC3CCOCC3)c3c(Nc4c(Cl)ccc5c4OCO5)ncnc3c2)CC1 [saracatinib]
# Method in brief: as §1
# [20] = compound: CN1CCN(c2nc(C3=C(c4c[nH]c5ccccc45)C(=O)NC3=O)c3ccccc3n2)CC1 [sotrastaurin]
# Method in brief: as §1
Target,log2 fold change [1],log2 fold change [2],log2 fold change [3],log2 fold change [4],log2 fold change [5],log2 fold change [6],log2 fold change [7],log2 fold change [8],log2 fold change [9],log2 fold change [10],log2 fold change [11],log2 fold change [12],log2 fold change [13],log2 fold change [14],log2 fold change [15],log2 fold change [16],log2 fold change [17],log2 fold change [18],log2 fold change [19],log2 fold change [20]
YWHAB (UniProt P31946),inactive: 0.022,inactive: 0.011,inactive: 0.007,inactive: 0.039,inactive: 0.015,inactive: -0.023,inactive: 0.002,inactive: -0.038,inactive: 0.029,inactive: 0.01,inactive: 0.017,inactive: -0.013,inactive: -0.025,inactive: 0.049,inactive: 0.016,inactive: 0.001,inactive: 0.34,inactive: -0.073,inactive: 0.001,inactive: 0.022
ZBTB21 (UniProt Q9ULJ3),inactive: 0.079,inactive: 0.078,inactive: 0.024,inactive: -0.046,inactive: -0.07,inactive: 0.014,inactive: -0.076,inactive: -0.049,inactive: 0.022,inactive: -0.036,inactive: 0.031,inactive: 0.03,inactive: -0.007,inactive: 0.232,inactive: -0.022,inactive: -0.042,inactive: -0.105,inactive: 0.062,inactive: 0.034,inactive: -0.011
YLPM1 (UniProt P49750),inactive: 0.028,inactive: -0.044,inactive: -0.002,inactive: 0.022,inactive: -0.006,active: 0.301,inactive: -0.031,inactive: -0.017,inactive: 0,inactive: -0.046,inactive: 0.062,inactive: 0.005,inactive: 0.032,inactive: 0.069,inactive: -0.019,inactive: -0.018,inactive: 0.165,inactive: -0.085,inactive: 0.033,inactive: 0.012
XRN1 (UniProt Q8IZH2),inactive: -0.113,inactive: 0.024,inactive: 0.03,inactive: -0.032,inactive: 0.067,inactive: 0.026,inactive: 0.036,inactive: -0.049,inactive: 0.024,inactive: 0.005,inactive: 0.052,inactive: 0.021,inactive: -0.012,inactive: -0.131,inactive: -0.015,inactive: 0.004,inactive: 0.059,inactive: -0.016,inactive: -0.026,inactive: 0.036
YWHAG (UniProt P61981),inactive: 0.001,inactive: -0.002,inactive: -0.037,inactive: 0.01,inactive: -0.025,inactive: -0.017,inactive: 0.007,inactive: 0.01,inactive: 0.008,inactive: -0.007,inactive: -0.037,inactive: -0.02,inactive: -0.033,inactive: 0.063,inactive: 0.009,inactive: 0.007,inactive: -0.002,inactive: 0.036,inactive: 0.017,inactive: -0.032
YBX1 (UniProt P67809),inactive: 0.034,inactive: -0.01,inactive: -0.02,inactive: -0.034,inactive: -0.019,inactive: -0.008,inactive: -0.023,inactive: 0.002,inactive: 0.001,inactive: -0.028,inactive: 0.011,inactive: 0.013,inactive: -0.057,inactive: 0.073,inactive: 0.015,inactive: -0.034,inactive: 0.124,inactive: -0.082,inactive: 0.033,inactive: 0.053
XPO1 (UniProt O14980),inactive: -0.01,inactive: 0.008,inactive: 0.029,inactive: -0.037,inactive: -0.01,inactive: -0.007,inactive: 0.035,inactive: -0.004,inactive: 0.02,inactive: 0.019,inactive: 0.015,inactive: 0.005,inactive: 0.023,inactive: -0.055,inactive: -0.026,inactive: 0.013,inactive: -0.05,inactive: 0.019,inactive: 0.033,inactive: 0.022
YME1L1 (UniProt Q96TA2),inactive: -0.04,inactive: -0.008,inactive: -0.006,inactive: -0.043,inactive: 0,inactive: -0.04,inactive: 0.003,inactive: 0.005,inactive: 0.054,inactive: -0.087,inactive: 0.01,inactive: 0.011,inactive: 0.036,inactive: -0.008,inactive: -0.02,inactive: 0.035,inactive: 0.181,inactive: -0.088,inactive: 0.037,inactive: 0.055
XXYLT1 (UniProt Q8NBI6),inactive: -0.005,inactive: 0.008,inactive: -0.015,inactive: -0.022,inactive: 0.05,inactive: 0.014,inactive: -0.065,inactive: 0.037,inactive: 0.025,inactive: 0.016,inactive: 0.089,inactive: 0.028,inactive: 0.031,inactive: -0.038,inactive: -0.014,inactive: -0.001,inactive: 0.018,inactive: 0.026,inactive: 0.029,inactive: -0.012
XPO4 (UniProt Q9C0E2),inactive: 0.012,inactive: 0.02,inactive: 0.053,inactive: 0.004,inactive: -0.024,inactive: -0.013,inactive: 0.014,inactive: -0.011,inactive: 0.031,inactive: 0.004,inactive: -0.028,inactive: 0.008,inactive: 0.01,inactive: -0.078,inactive: -0.035,inactive: 0.049,inactive: -0.08,inactive: 0.055,inactive: 0.009,inactive: 0.022
ZC3H4 (UniProt Q9UPT8),inactive: 0.02,inactive: -0.04,inactive: -0.011,inactive: -0.041,inactive: 0.003,inactive: -0.007,inactive: -0.095,inactive: 0.093,inactive: 0.024,inactive: -0.022,inactive: 0.009,inactive: 0.036,inactive: -0.028,inactive: 0.082,inactive: 0.01,inactive: -0.031,inactive: -0.016,inactive: -0.051,inactive: -0.013,inactive: -0.019
ZC3H13 (UniProt Q5T200),inactive: 0.046,inactive: 0.009,inactive: -0.003,inactive: -0.072,inactive: 0.058,inactive: -0.101,inactive: 0.046,inactive: 0.08,inactive: -0.01,inactive: -0.022,inactive: -0.027,inactive: -0.037,inactive: -0.045,inactive: 0.036,inactive: -0.013,inactive: -0.031,inactive: 0.033,inactive: 0,inactive: -0.046,inactive: 0.222
ZFP91 (UniProt Q96JP5),inactive: 0.022,inactive: -0.05,inactive: 0.071,inactive: -0.017,inactive: 0.03,inactive: 0,inactive: -0.04,inactive: 0.096,inactive: 0.042,inactive: -0.065,inactive: -0.005,inactive: 0.029,inactive: -0.009,inactive: 0.053,inactive: -0.014,inactive: -0.056,inactive: 0.093,inactive: -0.111,inactive: -0.005,inactive: 0.008
ZDHHC5 (UniProt Q9C0B5),inactive: 0.02,inactive: -0.032,inactive: 0.028,inactive: -0.012,inactive: -0.032,inactive: -0.033,inactive: -0.033,inactive: 0.004,inactive: 0.004,inactive: -0.034,inactive: 0.043,inactive: 0.038,inactive: 0.011,inactive: 0.006,inactive: 0.005,inactive: -0.019,inactive: 0.052,inactive: -0.008,inactive: 0.017,inactive: 0.013
ZCCHC17 (UniProt Q9NP64),inactive: 0.017,inactive: -0.021,inactive: 0.013,inactive: -0.039,inactive: 0.025,inactive: 0.023,inactive: 0.015,inactive: 0.052,inactive: -0.038,inactive: -0.034,inactive: 0.109,inactive: 0.091,inactive: -0.063,inactive: -0.063,inactive: -0.044,inactive: 0.036,inactive: 0.058,inactive: -0.07,inactive: 0.055,inactive: -0.14
ZBTB33 (UniProt Q86T24),inactive: 0.258,inactive: 0.183,inactive: -0.058,inactive: -0.158,inactive: 0.141,inactive: -0.027,inactive: 0.109,inactive: 0.129,inactive: 0.044,inactive: 0.109,inactive: 0.01,inactive: -0.017,inactive: -0.199,inactive: -0.002,active: -0.673,inactive: 0,inactive: 0.034,inactive: -0.008,inactive: 0.033,inactive: 0.015
